In the assay the target is NKG2A抗原 (NKG2A蛋白胞外段) (human) (UniProt P26715). Nature of the assay: ELISA on coated NKG2A antigen (200 ng/well), Goat Anti Human IgG-HRP. In general terms: An ELISA detects its analyte on a solid surface through an enzyme-linked reagent.

The chains behind the UniProt entries cited, without tags or fusion partners. Residues count along the entry.
UniProt P26715, residues 94-233: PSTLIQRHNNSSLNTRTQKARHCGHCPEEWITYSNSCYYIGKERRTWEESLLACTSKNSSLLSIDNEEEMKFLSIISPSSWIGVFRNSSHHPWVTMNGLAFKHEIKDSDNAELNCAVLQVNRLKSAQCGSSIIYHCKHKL

Drawing on patent CN115819587A, this text covers binding for three molecules.

Positions count from the first letter of the chain named. These are yes or no findings as the source states them, for the method shown. Some results given as binding are weak or reduced against the parent protein; the word gives no strength. Sequences can lack the tags named with a protein.

B1: 人源化全抗分子 HA-1-IgG1 (antibody, V domains shown, not shown: a dimerising Fc or GST)
VH: EVQLVESGGGLVKPGGSLRLSCAASGFTFSDYDMSWVRQAPGKGLEWVSTISSGGSYTYYPDSVKGRFTISRDNAKNSLYLQMNSLRAEDTAVYYCTSPRQVGLRKAFDYWGQGTTVTVSS
VL: DVVMTQSPAFLSVTPGEKVTITCSASSSVSYMYWYQQKPDQAPKLLIKLTSNLASGVPSRFSGSGSGTDFTFTISSLEAEDAATYYCQQWSSNPFTFGQGTKLEIKR
With B1, the binding entry is listed as “binds”.

B2: 人源化全抗分子 HA-2-IgG1 (antibody, V domains shown, not shown: a dimerising Fc or GST)
VH: B1 VH with T28A, S49A
VL: B1 VL with V2I, M4V
B2: the binding entry is given as “binds”.

B3: 嵌合抗体CA-1 (MA-1 variable regions with human IgG1 / human Ck constant regions) (antibody, V domains shown)
VH: EVKLEESGGGLVKPGGSLKLSCAASGFAFSDYDMSWVRQTPEKRLEWVATISSGGSYTYYPDSVKGRFTISRDNARNTLYLQMSSLRSEDTALYYCTSPRQVGLRKAFDYWGQGTTLTVSS
VL: DIVVTQSPALMSASPGEKVTMTCSASSSVSYMYWYQQKPRSSPKSWIYLTSNLASGVPARFSGSGSGTSYSLTISSMEAEDAATYYCQQWSSNPFTFGSGTKLEIKR
As for B3, the binding entry is reported as “binds”.
